Data on seven molecules can be found in paper PMC9247503, “Oligomerization and Spatial Distribution of Kvβ1.1 and Kvβ2.1 Regulatory Subunits” (Frontiers in Physiology, 2022).

Chains of the proteins cited; added tags and fusions are not shown.
UniProt P15384: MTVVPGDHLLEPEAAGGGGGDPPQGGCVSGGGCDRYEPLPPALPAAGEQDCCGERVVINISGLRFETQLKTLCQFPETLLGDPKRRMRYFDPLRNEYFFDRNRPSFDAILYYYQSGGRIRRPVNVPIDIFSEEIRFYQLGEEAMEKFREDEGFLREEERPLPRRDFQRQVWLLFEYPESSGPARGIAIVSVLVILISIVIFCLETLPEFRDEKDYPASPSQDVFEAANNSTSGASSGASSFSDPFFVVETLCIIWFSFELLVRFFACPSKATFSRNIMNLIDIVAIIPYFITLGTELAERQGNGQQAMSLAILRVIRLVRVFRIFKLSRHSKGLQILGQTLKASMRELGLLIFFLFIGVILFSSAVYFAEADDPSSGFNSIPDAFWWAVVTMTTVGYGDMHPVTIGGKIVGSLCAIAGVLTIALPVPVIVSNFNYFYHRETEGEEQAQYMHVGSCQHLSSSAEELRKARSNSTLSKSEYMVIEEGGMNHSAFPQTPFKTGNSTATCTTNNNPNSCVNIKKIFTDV

These are yes or no findings as the source states them, for the method shown. In cells and extracts the contact can be indirect. Some entries that bind do so weakly or less than the wild type.

One experiment concerns the target Kv1.3CFP (UniProt P15384). The experiment is described as follows: FRET or BRET; acceptor photobleaching FRET in fixed whole HEK-293 cells; CFP donor, YFP acceptor; confocal microscope. Background: BRET reads energy transfer from a luciferase to a nearby fluorophore.
In experiment [1] the target is T1, Kvβ2.1CFP (mouse (from the prefix m in mKvβ2.1)), P62482.
T1 chain: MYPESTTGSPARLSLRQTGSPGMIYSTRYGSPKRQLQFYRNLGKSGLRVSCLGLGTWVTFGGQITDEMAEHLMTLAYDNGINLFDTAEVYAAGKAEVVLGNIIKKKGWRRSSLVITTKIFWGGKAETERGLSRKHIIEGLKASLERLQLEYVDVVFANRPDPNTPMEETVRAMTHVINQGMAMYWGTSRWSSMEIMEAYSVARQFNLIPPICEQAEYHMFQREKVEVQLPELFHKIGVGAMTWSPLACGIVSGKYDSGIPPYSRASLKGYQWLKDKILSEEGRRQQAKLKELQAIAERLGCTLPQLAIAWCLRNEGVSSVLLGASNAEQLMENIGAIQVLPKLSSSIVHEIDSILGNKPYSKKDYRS
The experiment is described as follows: co-IP; HEK-293 cells co-transfected, no Kv α subunit; 1 mg lysate protein in 150 mM NaCl, 50 mM HEPES, 1% Triton X-100, pH 7.4; anti-GFP antibody crosslinked to protein A Sepharose, 2 h at room temperature; blots against CFP, Kvβ1.1 or Kvβ2.1. Particulars: remark: other sources report otherwise.

Experiment [2] concerns the target T1, Kvβ2.1CFP (mouse (from the prefix m in …)). The experiment is described as follows: FRET or BRET; acceptor photobleaching FRET in fixed whole HEK-293 cells; CFP donor, YFP acceptor; confocal microscope. The note with it: remark: other sources report otherwise.
For experiment [3] the target is unchanged. The experiment is described as follows: FRET or BRET; acceptor photobleaching FRET on cell unroofing preparations (CUPs, plasma membrane sheets) of transfected HEK-293 cells, fixed; CFP donor, YFP acceptor. The note with it: remark: other sources report otherwise.
Experiment [4] concerns the target T2, Kvβ1.1CFP (mouse (from the prefix m in mKvβ1.1)) (UniProt P63143).
T2 sequence: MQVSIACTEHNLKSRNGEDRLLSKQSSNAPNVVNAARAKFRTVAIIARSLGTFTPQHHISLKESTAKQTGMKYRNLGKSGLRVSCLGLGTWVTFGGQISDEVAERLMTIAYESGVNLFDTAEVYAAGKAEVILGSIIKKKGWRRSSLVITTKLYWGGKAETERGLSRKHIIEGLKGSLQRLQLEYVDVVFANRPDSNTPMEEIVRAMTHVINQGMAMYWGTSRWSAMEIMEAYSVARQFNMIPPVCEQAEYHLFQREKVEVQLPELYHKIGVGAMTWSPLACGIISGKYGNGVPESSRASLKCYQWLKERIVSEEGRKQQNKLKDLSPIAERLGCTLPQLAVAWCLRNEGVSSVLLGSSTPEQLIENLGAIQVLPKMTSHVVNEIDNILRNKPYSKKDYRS
Nature of the experiment: FRET or BRET; acceptor photobleaching FRET in fixed whole HEK-293 cells; CFP donor, YFP acceptor; confocal microscope.

Experiment [5] concerns the target T2, Kvβ1.1CFP (mouse (from the prefix m in mKvβ1.1)). Nature of the experiment: FRET or BRET; acceptor photobleaching FRET on cell unroofing preparations (CUPs, plasma membrane sheets) of transfected HEK-293 cells, fixed; CFP donor, YFP acceptor.
Experiment [6] shares this target. The experiment is described as follows: co-IP; HEK-293 cells co-transfected, no Kv α subunit; 1 mg lysate protein in 150 mM NaCl, 50 mM HEPES, 1% Triton X-100, pH 7.4; anti-GFP antibody crosslinked to protein A Sepharose, 2 h at room temperature; blots against CFP, Kvβ1.1 or Kvβ2.1.

As for Kv1.3YFP (from UniProt P15384 1-525), the binding entry with Kv1.3CFP was “binds”.

B1: Kvβ2.1, P62482 1-367 (protein)
chain: T1 chain
Regarding B1, in experiment [1], the binding result is “binds”.

B2: Kvβ2.1YFP, P62482 1-367 (natural protein)
chain: T1 chain
B2: the binding result in experiment [2] and in experiment [3] was “binds” throughout.

B3: Kvβ2.1YFP (natural protein, mouse (from the prefix m in mKvβ2.1), UniProt P62482 1-367, looked up)
chain: T1 chain
notes: voltage-gated potassium channel regulatory subunit Kvβ2.1, mouse by the prefix m in mKvβ2.1; also called mKvβ2.1 in pEYFP-N1; Kvb2.1 YFP; source: HEK-293, transfected; in cells or membrane sheets (FRET) and in lysate (semidenaturing gel)
Turning to B3, the binding result in experiment [4] and in experiment [5] was “binds” in each case.

B4: Kvβ2.1 (protein, UniProt P62482 1-367)
chain: T1 chain
As for B4, in experiment [6], the binding result is “binds”.

B5: Kvβ1.1 (protein, UniProt P63143 1-401)
chain: T2 sequence
With B5, in experiment [6], the binding entry was “binds”.

B6: Kvβ1.1YFP (natural protein, mouse (from the prefix m in mKvβ1.1), UniProt P63143 1-401, looked up)
chain: T2 sequence
notes: voltage-gated potassium channel regulatory subunit Kvβ1.1 (splice form 1.1 of Kvβ1), mouse by the prefix m in mKvβ1.1; also called mKvβ1.1 in pEYFP-N1; source: HEK-293, transfected; in cells or membrane sheets (FRET) and in lysate (semidenaturing gel)
As to B6, the binding result in experiment [4] and in experiment [5] was “binds” in each case.
